Results are given in words; binding and its absence hold for the method and conditions named. In cells and extracts the contact can be indirect. Some binding calls cover weakened binding; strength is not graded here. For some assays here: Sequences can lack the tags named with a protein.

The chains behind the UniProt entries cited, without tags or fusion partners.
UniProt P55737: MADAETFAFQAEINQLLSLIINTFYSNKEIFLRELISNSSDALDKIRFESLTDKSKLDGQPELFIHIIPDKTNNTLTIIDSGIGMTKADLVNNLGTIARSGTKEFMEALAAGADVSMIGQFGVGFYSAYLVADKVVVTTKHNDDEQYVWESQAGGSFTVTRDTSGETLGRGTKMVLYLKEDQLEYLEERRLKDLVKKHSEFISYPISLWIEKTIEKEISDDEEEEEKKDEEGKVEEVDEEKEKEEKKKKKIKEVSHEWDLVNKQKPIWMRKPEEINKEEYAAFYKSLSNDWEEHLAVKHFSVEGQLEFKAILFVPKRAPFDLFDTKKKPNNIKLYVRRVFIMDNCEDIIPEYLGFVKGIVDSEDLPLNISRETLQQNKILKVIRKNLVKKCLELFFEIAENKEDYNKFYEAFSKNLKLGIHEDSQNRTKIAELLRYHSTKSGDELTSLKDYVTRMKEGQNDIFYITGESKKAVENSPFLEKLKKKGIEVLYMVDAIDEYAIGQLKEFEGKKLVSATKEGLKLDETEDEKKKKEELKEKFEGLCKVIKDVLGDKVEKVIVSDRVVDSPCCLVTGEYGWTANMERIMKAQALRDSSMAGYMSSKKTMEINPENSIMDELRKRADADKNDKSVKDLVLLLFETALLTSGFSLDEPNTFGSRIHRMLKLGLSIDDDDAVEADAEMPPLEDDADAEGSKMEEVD

Binding data for four molecules are collected here from paper PMC4728404.

Assay [1] deals with T1, nYFP-SGT1b (Arabidopsis thaliana) (UniProt Q9SUT5).
T1 sequence: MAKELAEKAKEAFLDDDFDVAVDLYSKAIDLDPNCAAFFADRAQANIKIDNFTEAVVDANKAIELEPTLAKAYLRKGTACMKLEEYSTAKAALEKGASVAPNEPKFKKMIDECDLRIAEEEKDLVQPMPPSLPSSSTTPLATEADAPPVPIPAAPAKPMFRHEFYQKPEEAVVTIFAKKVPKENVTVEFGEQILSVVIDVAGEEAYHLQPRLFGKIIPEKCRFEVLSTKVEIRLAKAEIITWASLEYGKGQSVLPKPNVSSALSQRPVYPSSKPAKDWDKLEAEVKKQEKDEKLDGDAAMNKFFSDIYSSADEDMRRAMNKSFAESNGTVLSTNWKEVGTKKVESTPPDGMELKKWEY
In words: split reporter; BiFC: nYFP and cYFP fusions agro-infiltrated into N. benthamiana leaf epidermal cells, confocal imaging.

Assay [2] deals with T2, TIR1-VENUS (pTIR1:gTIR1-VENUS plants) (Arabidopsis thaliana) (UniProt Q570C0).
T2 sequence: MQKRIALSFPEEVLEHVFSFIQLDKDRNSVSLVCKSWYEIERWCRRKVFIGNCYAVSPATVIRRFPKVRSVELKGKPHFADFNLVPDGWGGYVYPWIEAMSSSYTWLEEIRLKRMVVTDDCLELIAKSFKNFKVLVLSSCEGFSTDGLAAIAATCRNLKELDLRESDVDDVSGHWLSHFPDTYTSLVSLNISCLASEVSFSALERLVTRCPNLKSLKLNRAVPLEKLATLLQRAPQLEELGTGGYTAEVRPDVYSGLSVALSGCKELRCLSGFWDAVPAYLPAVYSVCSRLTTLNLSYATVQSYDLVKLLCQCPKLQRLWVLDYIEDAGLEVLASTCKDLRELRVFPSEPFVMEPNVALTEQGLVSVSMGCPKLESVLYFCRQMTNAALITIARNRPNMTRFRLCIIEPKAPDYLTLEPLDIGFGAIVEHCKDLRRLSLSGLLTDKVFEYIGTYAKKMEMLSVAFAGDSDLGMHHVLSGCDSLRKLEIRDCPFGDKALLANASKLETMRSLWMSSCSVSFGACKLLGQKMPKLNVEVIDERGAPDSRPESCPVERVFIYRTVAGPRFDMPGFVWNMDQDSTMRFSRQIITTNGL
In words: co-IP; same procedure with 4 ug anti-GFP antibody; total protein from 7-day-old pTIR1:gTIR1-VENUS seedlings; blots with anti-GFP, anti-HSP90, anti-SGT1.

The target of assay [3] is T3, TIR1-Myc (pDEX:TIR1-Myc plants) (Arabidopsis thaliana) (UniProt Q570C0).
T3 sequence: T2 sequence
In words: co-IP; anti-Myc antibody crosslinked to Protein G Dynabeads; 2 mg total protein from 7-day-old pGVG:TIR1-Myc seedlings treated with or without 30 uM dexamethasone for 24 h; 4 h at 4 °C; blots with anti-Myc, anti-HSP90, anti-SGT1.

Assay [4] addresses T4, nYFP-TIR1 (Arabidopsis thaliana) (UniProt Q570C0).
T4 sequence: T2 sequence
In words: split reporter; BiFC: nYFP and cYFP fusions agro-infiltrated into N. benthamiana leaf epidermal cells, confocal imaging.

For a further assay, the target named is T5, GST-SGT1b (Arabidopsis) (UniProt Q9SUT5).
T5 sequence: T1 sequence
In words: pull-down; equal amounts of GST-tagged proteins purified from E. coli mixed with TIR1-Myc from a TNT extract, 4 °C for 4 h, washing, anti-Myc blot; only the target purified.

Take “cYFP-HSP90.2 (from UniProt P55737 1-699)”: the binding entry in assay [1] is listed as “binds”.

B1: SGT1b (endogenous, Arabidopsis seedlings) (protein, UniProt Q9SUT5 1-358)
chain: T1 sequence
Regarding B1, the binding entry in assay [2] and in assay [3] was “binds” in each case.

B2: cYFP-SGT1b (protein, UniProt Q9SUT5 1-358)
chain: T1 sequence
For B2, in assay [4], the binding entry is listed as “binds”.

B3: TIR1-Myc synthesized in a TNT extract (protein, UniProt Q570C0 1-594)
chain: T2 sequence
For B3, the binding entry with GST-SGT1b (Arabidopsis) is “binds”.
